Values quoted from earlier work in patent US6908947B2, “Sulfonamide-substituted fused 7-membered ring compounds, their use as a medicament, and pharmaceutical preparations comprising them” (Aventis Pharma Deutschland GmbH, priority 1997, dated 2005).
At least one structure is not confirmed: it was looked up by name or label, or the drawing left a doubt.

Test system: IKs / IKr
Details: mainly blocks the IKr; cited from earlier work

Question: Which “selectivity (IKs versus IKr block)” value does the source give for `CN1CCN(CCCCN2C(=O)CN(/N=C/c3ccc(-c4ccc(Cl)cc4)o3)C2=O)CC1` [azimilide] here?
Answer: 1:10
